PubChem BioAssay AID652272 | Drosophila RNAi Screening Center | 2013
The screen tested about 21,000 reagents; below is a random part of those with a known target gene and a result. In the full data, 503 (2.4%) were called active. 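Raw plate light values, not normalised; calls rest on replicate z-scores that were not deposited; hits include reporter decreases as well as increases.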 A plus sign joins genes that one reagent is predicted to hit. The record does not give: the amount of reagent, the time to read-out.

Aim: 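Genes whose knock-down decreases or increases Hedgehog reporter output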 (primary screen)
Cells: Drosophila clone 8 (Cl8) cells
Knock-down reagent: long dsRNA against Drosophila genes
Detection: 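Plate reader light from a firefly reporter under a ptc promoter fragment that responds to Hedgehog, with Renilla light as transfection reference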
Reading the numbers: firefly Hh reporter signal: higher = more ptc reporter light; Renilla reference signal: higher = more Renilla control light
Active means: 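Hit when the z-score averaged over two replicates is under -2 or over +3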
Meaning of the calls: active = hit: reporter lowered or raised; inactive = not a hit

target	amplicon	firefly Hh reporter signal, replicate 1	firefly Hh reporter signal, replicate 2	firefly Hh reporter signal, replicate 3	Renilla reference signal, replicate 1	Renilla reference signal, replicate 2	Call
CG6220	DRSC06969	84678	53019		2518	4330	inactive
CG32333	DRSC08627	98683	75690		5453	3449	inactive
CG32333	DRSC08629	41592	25573		1701	2025	inactive
CG11808	DRSC06088	1.40e5	1.27e5		4850	4797	inactive
Twdlalpha	DRSC19914	63936	1.83e5		1868	8737	inactive
e(y)2b	DRSC12556	1.26e5	1.28e5		4963	3682	inactive
ATPsyndelta	DRSC18248	35158	1.78e5		1249	5562	inactive
CG12118	DRSC17813	93653	71824		2247	1978	inactive
Idh3b	DRSC16040	1.08e5	79363		4052	3341	inactive
CNMa	DRSC08405	62700	27741		2760	4266	active
MstProx	DRSC12458	1.62e5			3389		inactive
MstProx	DRSC12601	70737	1.07e5		1738	3282	inactive
CG11030	DRSC02120	71267	44392		2721	6096	inactive
TTLL1A	DRSC20121	81750	95949		1889	2071	inactive
CG6885	DRSC10740	73360			3266	1236	inactive
CG9705	DRSC11094	1.89e5	1.09e5		7515	4817	inactive
Mettl2	DRSC08398	1.31e5	76145		5417	3378	inactive
ProRS-m	DRSC08261	74848	51376		2245	3440	inactive
mms4	DRSC06249	91298	43863		2482	4013	inactive
CG33229	DRSC07863	1.37e5	3.10e5		3941	12828	inactive
Mco4	DRSC20061	65959	2.28e5		2359	9268	inactive
Cnx99A + Cnx14D	DRSC16610	75017	95372		2561	3117	inactive
CG31974	DRSC00522	1.17e5	96598		2548	2375	inactive
salt	DRSC15427	1.22e5	76115		2739	2811	inactive
hth	DRSC16967	1.15e5	93063		4273	3024	inactive
CG12316	DRSC09879	92196	64956		3686	3034	inactive
CG1764	DRSC19779	1.10e5	95048		3034	2525	inactive
CG33298	DRSC02210	1.04e5	30290		2704	3313	inactive
CG33298	DRSC02672	73910	1.03e5		2870	3879	inactive
osa	DRSC17022	1.90e5	96752		5979	2930	inactive
modSP	DRSC16726	1.75e5	1.48e5		5741	4112	inactive
modSP	DRSC16857	59864	88580		2178	2483	inactive
lab	DRSC12627	64506	77124		2610	2289	inactive
Dp	DRSC07402	74784	64242		4935	3848	inactive
axo	DRSC08116	6.12e5	1.43e5		5845	5845	inactive
axo	DRSC08324	55862	35713		5097	2712	inactive
axo	DRSC08326	18364	15761		2128	1178	inactive
CG1835	DRSC20560	65841	2.19e5		2394	8600	inactive

The list goes on; the last 2 above are carried over.
target	amplicon	firefly Hh reporter signal, replicate 1	firefly Hh reporter signal, replicate 2	firefly Hh reporter signal, replicate 3	Renilla reference signal, replicate 1	Renilla reference signal, replicate 2	Call
axo	DRSC08326	18364	15761		2128	1178	inactive
CG1835	DRSC20560	65841	2.19e5		2394	8600	inactive
CG10321	DRSC04061	4.96e5	95072		4188	4188	inactive
CG12496	DRSC18602	41403	2.32e5		1120	8608	inactive
CG43104 (retired record)	DRSC05624	1.17e5	2.41e5		3392	9532	inactive
CG7518	DRSC16253	93381	93722		4240	4173	inactive
Pgm1	DRSC10490	60801	56748		2301	2488	inactive
CG15484	DRSC02494	2.13e5	6.46e5	83100	5392	35851	inactive
CG13248	DRSC11696	1.05e5	1.11e5		3588	3075	inactive
alpha-Est4aPsi	DRSC12473	1.52e5			3239		inactive
CG4198	DRSC18354	1.12e5	1.08e5		2576	2682	inactive
spel1	DRSC03617	1.94e5	78065		4584	7202	inactive
Acp29AB	DRSC01857	65877	35430		1994	4940	inactive
mei-P26	DRSC17735	30619	18903		992	605	inactive
HP6	DRSC00471	66698	25267		2105	3477	inactive
CG11585	DRSC19410	59708	2.24e5		2036	9724	inactive
CG3513	DRSC00608	1.46e5	63762		4019	6441	inactive
CG15221	DRSC19659	68613	2.51e5		2212	9393	inactive
CG32833	DRSC04596	98912	49403		3877	2026	inactive
Ufd4	DRSC02871	1.09e5	40871		3051	4682	inactive
CG12768	DRSC11680	68082	65329		2551	1818	inactive
